Library screening results

Sequences of proteins named here, by UniProt entry; tags and fusion partners are left off.
UniProt E9BF75, entry or part of it: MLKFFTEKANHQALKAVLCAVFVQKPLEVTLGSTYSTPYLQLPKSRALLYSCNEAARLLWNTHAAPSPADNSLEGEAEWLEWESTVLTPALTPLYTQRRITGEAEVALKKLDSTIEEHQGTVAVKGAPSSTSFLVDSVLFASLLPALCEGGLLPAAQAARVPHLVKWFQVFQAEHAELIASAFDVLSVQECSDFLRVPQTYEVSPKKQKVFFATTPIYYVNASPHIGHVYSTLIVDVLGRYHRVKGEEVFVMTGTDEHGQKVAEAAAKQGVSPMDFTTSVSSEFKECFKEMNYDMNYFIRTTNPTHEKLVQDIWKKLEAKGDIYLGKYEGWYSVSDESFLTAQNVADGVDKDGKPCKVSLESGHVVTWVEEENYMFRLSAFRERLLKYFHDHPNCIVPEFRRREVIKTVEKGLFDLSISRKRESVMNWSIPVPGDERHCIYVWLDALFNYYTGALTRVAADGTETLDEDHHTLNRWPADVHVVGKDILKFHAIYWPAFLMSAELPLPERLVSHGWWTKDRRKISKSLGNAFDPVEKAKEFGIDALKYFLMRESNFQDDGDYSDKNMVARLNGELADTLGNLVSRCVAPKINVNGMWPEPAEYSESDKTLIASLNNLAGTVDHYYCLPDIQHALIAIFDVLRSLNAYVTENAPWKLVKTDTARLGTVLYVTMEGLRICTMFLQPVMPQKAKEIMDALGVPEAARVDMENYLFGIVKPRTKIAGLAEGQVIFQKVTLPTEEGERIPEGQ

From ChEMBL document CHEMBL3988442, “University of Dundee, Small-Polar-MMV Screening Library” (2021).

A: 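Methionyl-tRNA synthetase (putative), Leishmania donovani (UniProt E9BF75). Primary screen of methionyl-tRNA synthetase; the read-out is not stated. The test concentration is not given. Values are per cent inhibition. About 68,000 compounds were tested under these conditions; 0.035% (about 24) showed 50% or more at least once.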
B: 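Assay on Mycobacterium tuberculosis, filed only as a heat shock assay from Cornell; the read-out is not stated. The concentration is filed as 10 mM, unlikely as a test dose, so the dose is not known. The record gives no direction; compounds that gave an IC50 in retests scored well above the rest, so higher reads as stronger inhibition. About 69,000 compounds were tested under these conditions; 1.4% (about 930) showed 50% or more at least once.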

All values are in %.
How 0% and 100% were set is not recorded. Most values in the screen are low, and negative values occur.
The compounds are a random part of those screened.
A dash means the value is not listed here; it may have been measured.

Compound | A | B
O=C(CC1CC1)N1CC[C@@H]2[C@H](CC1)N(Cc1cccnc1)CCS2(=O)=O | -3.046 | -
CC1CCN(S(=O)(=O)N2CCc3sccc3C2)CC1 | 9.253 | -7.1
[H][C@]12CC[C@@]3(N=C(c4ccccc4)NC3=O)[C@@]1([H])CN(Cc1ccoc1)C2 | - | -6.878
CNC(=O)c1nc(COc2c(C)occc2=O)no1 | 10.57 | 0.9576
Cc1cc(S(=O)(=O)N2CCCc3ccccc32)sc1C(=O)O | 0.5305 | -9.635
O=C([C@H]1C[C@H]2OCC[C@H]2N(C(=O)c2ccncc2)C1)N1CCCC1 | 18.52 | -
[H][C@]12CC[C@]([H])(CN(c3nccc(OC)n3)C1)N(CC1CC1)C2 | - | 16.32
O[C@@H]1CN(CC2CC2)CC[C@H]1N1CCN(c2ccccc2F)CC1 | 3.957 | 1.25
CCn1cc(NS(=O)(=O)c2ccc(Br)s2)c(C(N)=O)n1 | 5.263 | -11.52
CC(=O)N1CCOCC2(CCN(Cc3ccc(C)s3)CC2)C1 | 14.64 | -
Cc1cc(F)c(S(=O)(=O)NCCCN2CCC(O)CC2)cc1F | -0.7874 | -11.25
COc1cc(C(=O)N2Cc3cnc(C(C)(C)C)nc3C2)ccn1 | 21.99 | 9.627
CN1CCN(c2ncc3c(c2C(=O)O)CCN(C2CCOC2)C3)CC1 (stereo not given) | 11.23 | -
COc1cccc(CSCC(=O)NCc2cccnc2)c1 | 9.487 | -12.66
Cl.NC(=O)C(c1ccc(F)cc1)N1CCN(CCO)CC1 (stereo not given) | - | -7.681
CC(C)c1nn(C)c(Cl)c1CNCc1ccc2c(c1)OCO2.Cl | - | 15.25
Cc1cnc2n(c1=O)C(CC(=O)NCc1cc(-c3cccs3)on1)CS2 (stereo not given) | 4.902 | -8.318
COCCNS(=O)(=O)c1ccc(CNc2ncccc2C#N)cc1 | 8.099 | 14.78
COc1cccc(C)c1C(=O)N1CCc2ncnc(NCCO)c2CC1 | 12.46 | -3.281
O=C(c1ccc(S(=O)(=O)NCCc2ccccn2)cc1)N1CCCC1 | 9.645 | -5.875
CNC(=O)CNC(=O)CC1C(=O)NCCN1Cc1ccccc1C (stereo not given) | 4.819 | 20.55
CCCc1nc(C)c(C(=O)NCCN2CCN(CC)CC2)s1 | 7.317 | -0.8476
CC1(C(N)=O)CN(CC2CCOCC2)CCO1 (stereo not given) | 4.688 | -24.42
CCc1ccc(C(=O)NCc2ccnc(C)n2)cc1 | 13.65 | -4.128
Cc1noc(C)c1S(=O)(=O)NC(=O)COc1ccc2c(c1)CCC2 | 10.22 | 16.36
O=C(NCC1CCOC1)c1ccc(OCC(F)(F)F)nc1 (stereo not given) | 14.11 | 34.9
CCN(CCc1nccs1)C(=O)c1sccc1C | 10 | -14.83
COc1cccc2c1OCC(CNC(=O)Cc1c(C)nc(N)nc1C)C2 (stereo not given) | 8.591 | -10.98
CNC(=O)C(C)(C)N1CCC[C@H]1C(=O)NCC1CC1 | -1.099 | -9.657
N#CCCN(c1ccccc1)S(=O)(=O)CC1CCCCO1 (stereo not given) | 14.78 | -14.98
CC(C(=O)Nc1ccc(N2CCCCC2)nc1)n1cncn1 (stereo not given) | 15 | -20
CCN1C(=O)CC(c2ccccc2)C12CCN(CC1CCOCC1)CC2.O=C(O)C(F)(F)F (stereo not given) | - | -6.229
O=C(c1ccc(O)cc1)N1CCN(C(=O)c2ccc3c(c2)COC3)CC1 | 10.8 | 15.25
COc1ccc(C(=O)C2CCCN(Cc3ccncc3)C2)c(OC)c1 (stereo not given) | 10.37 | 16.99
CN(Cc1cc(C(C)(C)C)n[nH]1)C(=O)c1ccccc1C1CCNC1 (stereo not given) | 8.939 | -15.42
COc1ccc(C2CCCN2C(=O)c2csc(NC(C)=O)n2)cc1 (stereo not given) | 11.74 | 20.24
CC1=NC2(CCN(CC(C)c3ccccc3)CC2)C(=O)N1 (stereo not given) | 1.292 | -23.96
Cc1cnn(CCNCc2ccccc2OCc2ccccn2)c1 | 10.6 | 1.408
CC(C)n1cnnc1CNC(=O)c1cnn(-c2ccccc2)c1 | 11.11 | -23.87
CC(=O)N1CCCC(c2ccc(Nc3nc(C)cc(C)n3)cn2)C1 (stereo not given) | 11.5 | 0.2647
Fc1cccc(-c2nnn3c2COC(CNCc2ccsc2)C3)c1 (stereo not given) | 14.81 | -
NC(=O)c1ccc(C(=O)N2CCCCC2Cn2cccn2)s1 (stereo not given) | 9.218 | -23.46
CN1CCCC1c1ccnc(-c2ccccn2)n1 (stereo not given) | 15.75 | 8.049
O=C(O)C(F)(F)F.O=C(O)C(F)(F)F.[H][C@@]12OCCN(Cc3ccc(C)o3)[C@@]1([H])CC[C@@H]2OCc1cccnc1 | - | 0.9957
CN1CCC(c2cccc(Cc3ccc(C(F)(F)F)cc3)n2)CC1 | 15.82 | 0.3516
CNCC(=O)N1CCCC1c1cncc(Oc2ccc(F)cc2)n1.Cl (stereo not given) | - | 4.896
O=C(O)C(F)(F)F.O=C1N(Cc2ccncc2)CCC12CCCN(c1ncc(F)cn1)C2 (stereo not given) | - | -23.99
CN(C)C(=O)[C@H]1C[C@H]2[C@H](CCN2Cc2ccc3c(c2)OCO3)O1 | 5.229 | -
CCNC(=O)[C@@H]1C[C@@H](NC(=O)CSC)CN1Cc1ccncc1 | 14.37 | -6.502
Cc1cc(NCCO)nc(N2CCC(Cc3ccccc3)CC2)c1C#N.O=C(O)C(=O)O | - | -7.5
CN(C)C(=O)CO[C@@H]1CN(Cc2ccccc2)[C@@H]2CCCO[C@@H]21 | 8.065 | -
Cc1ccc(CN2C[C@@H](C(=O)O)[C@H](c3ccccn3)C2)o1 | 2.258 | -14.59
O=C(CC1CC1)N1CCC2(CC1)CN(Cc1cccnc1)C(=O)CO2.O=C(O)C(F)(F)F | - | -14.1
O=C(c1csc(-c2cccs2)n1)N1CCN2CCCCC2C1 (stereo not given) | 7.652 | -6.938
CN(C)C[C@@H]1CCC[C@@H]2CN(c3cccnc3)C[C@@H]21 | 6.667 | -
CN(C)c1cc(CNC(=O)c2n[nH]c(=O)c3ccccc23)ccn1 | 7.735 | -5.332
COc1ccc(Cl)cc1C(=O)N1CCCC(c2cc(C)[nH]n2)C1 (stereo not given) | 19.94 | -8.795
CSc1ccc(C(C)NC(=O)c2cc(C)on2)cc1 (stereo not given) | 10.56 | 15.94
Cc1nc(C)n(C2CCCN(C(=O)CCn3cncn3)C2)n1 (stereo not given) | 12.26 | -3.613
CC(=O)N1C[C@@H](F)[C@@H](OCc2nc3cc(C)c(C)cc3[nH]2)C1 | 5.085 | -26.59
CCCNC(=O)C(C)Nc1ccc(OCC)cc1 (stereo not given) | 7.419 | 18.58
Cc1ccc(N2CCO[C@@H]3CN(Cc4cccc(C)n4)CC[C@@H]3C2)nn1 | 15.33 | -
Cc1ccc2nc(C3CCN(CC4CC4)CC3)nn2c1 | 9.375 | -
CCCNC(=O)c1cccc(CNCc2csc(C(C)C)n2)c1 | 16.17 | 1.837
COc1cccc(CN2C[C@H]3CCNCC[C@H]3S2(=O)=O)c1 | -2.422 | -
[H][C@@]12CCN(S(=O)(=O)C3CC3)[C@]1([H])CCC(=O)N2CC1CC1 | - | 14.85
CS(=O)(=O)c1cn[nH]c1C1CCCCN1C(=O)c1cncs1 (stereo not given) | 12.86 | -21.2
Cc1cc2nc(CO[C@H]3CN(CC4CC4)C[C@H]3F)[nH]c2cc1C | 14.29 | -27.33
Cc1cc(C)n(CCNc2ncnc3c2NC(=O)CN3)n1 | 20.96 | -3.27
Cc1nc(CN2CCC3(CC2)CC(=O)N(C)c2ccccc23)cs1 | 19.57 | -
CCOCC1CN(C(=O)COc2ccccc2C)Cc2ncn(C)c21 (stereo not given) | 16.3 | -
Cc1cc(N2CCC(c3n[nH]c4nccnc34)CC2)ncn1 | 4.502 | -26.28
c1ccc(NCc2cccc(OCCN3CCOCC3)c2)nc1 | 10.07 | 8.132
Cc1nn(C)c(C)c1NC(=O)CNC(c1ccc(F)cc1)C1CCC1 (stereo not given) | 0.2841 | 4.29
CC(C)(Oc1ccc(C(N)=O)cc1)C(=O)N(CCC#N)CC1CCCO1 (stereo not given) | 1.944 | -3.425
Clc1cccc(C[C@@H]2NCCC[C@@H]2Nc2ccccc2)c1 | 9.974 | -
O=C(O)C(F)(F)F.O=C(O)C(F)(F)F.[H][C@@]12CCN(Cc3ccsc3)C[C@]1([H])[C@@H](CN(C)Cc1ccco1)OC2 | - | -17
O=C(CC(F)(F)F)N1C[C@H]2CCN[C@H]2C1 | 12.64 | -
Cn1cc(-c2cc(C(=O)N3CCOCC3)c3ccc(F)cc3n2)cn1 | 0.542 | -4.508
CCCn1ccc2cc(NC(=O)NCCn3cnnc3CC)ccc21 | 21.27 | 7.126
CCn1c(CN(C)C)nnc1C1CCN(Cc2cccc(OC)c2)CC1 | 7.874 | -3.84
CN(C)Cc1nn(C)c2c1CN(C(=O)Nc1cccc(F)c1)C2 | 15.68 | -18.29
COCC(=O)NC[C@@]1(COc2cnccn2)C[C@@H](O)[C@@H](O)C1.Cl | - | -4.022

10 of the entries, repeated:

{"compound": "CS(=O)(=O)c1cn[nH]c1C1CCCCN1C(=O)c1cncs1", "stereo": "stereo not given", "A": 12.86, "B": -21.2}
{"compound": "CCCNC(=O)c1cccc(CNCc2csc(C(C)C)n2)c1", "A": 16.17, "B": 1.837}
{"compound": "Cc1nc(C)n(C2CCCN(C(=O)CCn3cncn3)C2)n1", "stereo": "stereo not given", "A": 12.26, "B": -3.613}
{"compound": "[H][C@@]12CCN(S(=O)(=O)C3CC3)[C@]1([H])CCC(=O)N2CC1CC1", "B": 14.85}
{"compound": "Cn1cc(-c2cc(C(=O)N3CCOCC3)c3ccc(F)cc3n2)cn1", "A": 0.542, "B": -4.508}
{"compound": "CN(C)c1cc(CNC(=O)c2n[nH]c(=O)c3ccccc23)ccn1", "A": 7.735, "B": -5.332}
{"compound": "CCCn1ccc2cc(NC(=O)NCCn3cnnc3CC)ccc21", "A": 21.27, "B": 7.126}
{"compound": "Cc1nn(C)c(C)c1NC(=O)CNC(c1ccc(F)cc1)C1CCC1", "stereo": "stereo not given", "A": 0.2841, "B": 4.29}
{"compound": "CNCC(=O)N1CCCC1c1cncc(Oc2ccc(F)cc2)n1.Cl", "stereo": "stereo not given", "B": 4.896}
{"compound": "O=C(O)C(F)(F)F.O=C(O)C(F)(F)F.[H][C@@]12OCCN(Cc3ccc(C)o3)[C@@]1([H])CC[C@@H]2OCc1cccnc1", "B": 0.9957}